Assay results published in the supplement of paper PMC6411743.
± gives the standard deviation of the averaged measurements. The entries are a selection whose mix differs from that of the whole data set.

Assays:
Experiment in all cases: NP40-soluble protein abundance relative to vehicle (solubility fold change) (ratio); higher = more soluble protein in presence of ATP
[1] = target: T1, UniProt Q7L3B6 and related entries
T1 sequence (whole entry): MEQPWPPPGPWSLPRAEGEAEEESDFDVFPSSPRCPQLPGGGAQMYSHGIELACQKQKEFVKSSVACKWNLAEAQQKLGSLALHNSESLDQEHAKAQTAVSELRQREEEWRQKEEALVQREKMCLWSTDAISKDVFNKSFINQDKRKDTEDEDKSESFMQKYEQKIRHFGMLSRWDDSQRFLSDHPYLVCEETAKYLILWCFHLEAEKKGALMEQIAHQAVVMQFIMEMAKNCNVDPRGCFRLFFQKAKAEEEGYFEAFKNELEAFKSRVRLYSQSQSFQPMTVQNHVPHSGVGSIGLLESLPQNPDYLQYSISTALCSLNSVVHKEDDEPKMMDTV
Summary of the method: (§1)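 Data come from three independent experiments in which Dounce-homogenised Jurkat crude lysate was treated at eight concentrations from 0.1 to 10 mM. Treatment ran 10 min at room temperature and then 3 min at 37 °C, after which 0.8% NP40 and benzonase were added for 60 min at 4 °C before ultracentrifugation. The supernatant underwent TMT labelling and LC-MS/MS, and vsn-normalised intensities were expressed as fold change against the detergent-processed vehicle in each replicate.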

UniProt Q7L8W6 = target: T2, UniProt Q7L8W6
T2 sequence (whole entry): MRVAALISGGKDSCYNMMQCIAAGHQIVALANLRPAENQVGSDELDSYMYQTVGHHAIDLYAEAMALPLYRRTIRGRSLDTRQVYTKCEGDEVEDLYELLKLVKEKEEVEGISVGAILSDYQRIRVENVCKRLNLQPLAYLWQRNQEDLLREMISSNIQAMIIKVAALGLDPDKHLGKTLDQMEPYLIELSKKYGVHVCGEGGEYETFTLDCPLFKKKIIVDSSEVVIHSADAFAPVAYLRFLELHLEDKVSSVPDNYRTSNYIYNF
Summary of the method: as §1

[2] = target: T3, UniProt Q86TB9 and related entries
T3 sequence (whole entry): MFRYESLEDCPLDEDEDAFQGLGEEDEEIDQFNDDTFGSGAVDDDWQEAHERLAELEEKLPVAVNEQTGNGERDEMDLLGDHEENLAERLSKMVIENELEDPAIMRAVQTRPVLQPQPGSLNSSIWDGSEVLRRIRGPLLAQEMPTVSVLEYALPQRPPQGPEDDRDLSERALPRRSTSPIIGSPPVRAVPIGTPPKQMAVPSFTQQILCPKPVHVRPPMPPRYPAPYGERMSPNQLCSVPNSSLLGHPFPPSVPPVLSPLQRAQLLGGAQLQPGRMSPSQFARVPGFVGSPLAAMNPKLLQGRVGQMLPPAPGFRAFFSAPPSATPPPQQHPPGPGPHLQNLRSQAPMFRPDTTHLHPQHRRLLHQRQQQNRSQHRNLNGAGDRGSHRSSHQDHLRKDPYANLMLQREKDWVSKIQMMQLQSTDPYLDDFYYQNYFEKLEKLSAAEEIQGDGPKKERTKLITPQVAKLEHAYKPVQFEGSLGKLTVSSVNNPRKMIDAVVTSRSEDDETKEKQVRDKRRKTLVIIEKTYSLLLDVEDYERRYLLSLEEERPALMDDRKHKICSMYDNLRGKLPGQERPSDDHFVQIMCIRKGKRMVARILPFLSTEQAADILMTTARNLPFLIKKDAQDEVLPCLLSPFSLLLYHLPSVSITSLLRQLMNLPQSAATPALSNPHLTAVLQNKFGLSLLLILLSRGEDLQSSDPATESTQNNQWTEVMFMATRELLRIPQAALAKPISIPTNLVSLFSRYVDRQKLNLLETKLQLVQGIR
Summary of the method: as §1

[3] = target: T4, UniProt Q86W34 and related entries
T4 sequence (whole entry): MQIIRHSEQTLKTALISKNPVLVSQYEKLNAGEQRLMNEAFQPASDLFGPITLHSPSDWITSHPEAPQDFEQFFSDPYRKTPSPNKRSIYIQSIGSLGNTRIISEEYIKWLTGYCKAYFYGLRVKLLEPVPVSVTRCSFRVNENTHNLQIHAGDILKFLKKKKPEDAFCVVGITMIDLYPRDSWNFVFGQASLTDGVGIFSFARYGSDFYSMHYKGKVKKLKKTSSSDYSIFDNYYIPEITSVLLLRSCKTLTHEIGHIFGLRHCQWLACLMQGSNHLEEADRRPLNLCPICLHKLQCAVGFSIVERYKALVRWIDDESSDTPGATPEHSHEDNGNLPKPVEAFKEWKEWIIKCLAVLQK
Summary of the method: as §1

[4] = target: T5, UniProt Q86WA6 and related entries
T5 sequence (whole entry): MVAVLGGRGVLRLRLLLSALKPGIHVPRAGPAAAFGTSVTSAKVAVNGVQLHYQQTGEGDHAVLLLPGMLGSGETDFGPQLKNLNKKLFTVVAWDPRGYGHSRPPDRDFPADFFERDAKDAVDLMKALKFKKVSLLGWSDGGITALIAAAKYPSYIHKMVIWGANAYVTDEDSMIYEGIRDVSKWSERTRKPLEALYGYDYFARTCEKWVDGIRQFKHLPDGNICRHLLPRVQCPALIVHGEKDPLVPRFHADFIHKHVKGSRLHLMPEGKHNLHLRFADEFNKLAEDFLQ
Summary of the method: as §1

## Nc1ncnc2c1ncn2[C@@H]1O[C@H](COP(=O)(O)OP(=O)(O)OP(=O)(O)O)[C@@H](O)[C@H]1O [adenosine triphosphate]
[1]; concentration: 1mM
  NP40-soluble protein abundance: 0.94 ± 0.013
[1]; concentration: 2mM
  NP40-soluble protein abundance: 0.959 ± 0.015
[1]; concentration: 4mM
  NP40-soluble protein abundance: 0.923 ± 0.066
[1]; concentration: 6mM
  NP40-soluble protein abundance: 0.985 ± 0.059
[1]; concentration: 8mM
  NP40-soluble protein abundance: 0.923 ± 0.011
[1]; concentration: 10mM
  NP40-soluble protein abundance: 0.891 ± 0.085
UniProt Q7L8W6; concentration: 1mM
  NP40-soluble protein abundance: 1.01 ± 0.11
UniProt Q7L8W6; concentration: 2mM
  NP40-soluble protein abundance: 1.04 ± 0.11
UniProt Q7L8W6; concentration: 4mM
  NP40-soluble protein abundance: 1.01 ± 0.078
UniProt Q7L8W6; concentration: 6mM
  NP40-soluble protein abundance: 1.01 ± 0.18
UniProt Q7L8W6; concentration: 8mM
  NP40-soluble protein abundance: 1.03 ± 0.062
UniProt Q7L8W6; concentration: 10mM
  NP40-soluble protein abundance: 1.07 ± 0.12
[2]; concentration: 1mM
  NP40-soluble protein abundance: 0.9812 ± 0.0094
[2]; concentration: 2mM
  NP40-soluble protein abundance: 0.9891 ± 0.0063
[2]; concentration: 4mM
  NP40-soluble protein abundance: 0.97 ± 0.016
[2]; concentration: 6mM
  NP40-soluble protein abundance: 0.9846 ± 0.0072
[2]; concentration: 8mM
  NP40-soluble protein abundance: 0.963 ± 0.017
[2]; concentration: 10mM
  NP40-soluble protein abundance: 0.973 ± 0.0086
[3]; concentration: 1mM
  NP40-soluble protein abundance: 1.02 ± 0.073
[3]; concentration: 2mM
  NP40-soluble protein abundance: 1.06 ± 0.052
[3]; concentration: 4mM
  NP40-soluble protein abundance: 1.06 ± 0.017
[3]; concentration: 6mM
  NP40-soluble protein abundance: 0.881 ± 0.14
[3]; concentration: 8mM
  NP40-soluble protein abundance: 0.996 ± 0.044
[3]; concentration: 10mM
  NP40-soluble protein abundance: 1.06 ± 0.1
[4]; concentration: 1mM
  NP40-soluble protein abundance: 0.985 ± 0.04
[4]; concentration: 2mM
  NP40-soluble protein abundance: 0.974 ± 0.03
[4]; concentration: 4mM
  NP40-soluble protein abundance: 0.974 ± 0.03
[4]; concentration: 6mM
  NP40-soluble protein abundance: 0.944 ± 0.039
[4]; concentration: 8mM
  NP40-soluble protein abundance: 0.982 ± 0.016
[4]; concentration: 10mM
  NP40-soluble protein abundance: 0.94 ± 0.038
